# Experimental data from PubChem BioAssay AID1671190 (National Center for Advancing Translational Sciences (NCATS), 2021).
# Sequences of proteins named here, by UniProt entry; tags and fusion partners are left off. A change or cut given only in a name is not applied to a line headed by its entry.
# UniProt P18054: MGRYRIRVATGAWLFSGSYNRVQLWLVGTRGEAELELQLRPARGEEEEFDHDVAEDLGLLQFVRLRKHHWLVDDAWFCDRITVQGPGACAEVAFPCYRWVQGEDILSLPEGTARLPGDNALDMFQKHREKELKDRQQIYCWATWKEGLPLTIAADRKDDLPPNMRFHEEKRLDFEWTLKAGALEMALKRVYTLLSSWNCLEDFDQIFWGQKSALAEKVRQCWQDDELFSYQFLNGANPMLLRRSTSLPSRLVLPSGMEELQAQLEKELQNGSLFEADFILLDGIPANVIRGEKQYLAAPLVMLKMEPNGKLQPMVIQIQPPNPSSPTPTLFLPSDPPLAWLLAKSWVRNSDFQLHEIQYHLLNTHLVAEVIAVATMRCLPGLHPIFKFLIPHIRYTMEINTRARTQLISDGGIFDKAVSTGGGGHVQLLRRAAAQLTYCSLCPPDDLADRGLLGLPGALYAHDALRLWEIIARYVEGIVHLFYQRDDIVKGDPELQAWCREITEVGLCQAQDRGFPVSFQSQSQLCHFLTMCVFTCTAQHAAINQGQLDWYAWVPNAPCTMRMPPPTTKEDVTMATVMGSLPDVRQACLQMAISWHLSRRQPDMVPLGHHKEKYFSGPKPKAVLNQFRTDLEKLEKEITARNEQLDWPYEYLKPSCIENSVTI
# Where “and” joins values, the source holds several entries; their conditions need not be identical. Equal entries are not always repeated. Hit rate of the full screen: of about 580,000 compounds, about 6,100 (1.1%) were called active. Inconclusive means that the source gave no clear call. Such entries were picked first, then a sample of the others. Calls follow the shape of the dose curve; as a rule, active = well fitted inhibition curve with a large enough effect; inconclusive = small, poorly fitted or top-dose-only effect, or another doubt; inactive = no such curve, though single readings can be large or run the other way. Where the call is inconclusive, the potency comes from a doubtful curve fit.
# Molecular target: Polyunsaturated fatty acid lipoxygenase ALOX12 (Homo sapiens) (UniProt P18054)
# Experiment: Primary qHTS assay for inhibitors of human arachidonate 12S-lipoxygenase (ALOX12): Round 2
# Conditions: purified 12hLO, xylenol orange hydroperoxide absorbance; activity change, negative = inhibition: at 108 µM (top of the series) unless noted
# Method in brief: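 Purified human 12hLO (150 nM final) in 25 mM Hepes, 0.01% Triton X-100, pH 7.0 was preincubated 15 min at room temperature with compound. Then 40 uM arachidonic acid was added, 30 min. Hydroperoxide was read by Fe-XO absorbance ratio 573/405 nm.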
# % is scaled to controls: 0 for no effect and ±100 for the full control effect; potency is read from the fitted curve at half-maximal effect.
SMILES,Potency,"activity change, negative = inhibition"
COCCNC(=S)N=Nc1c(O)[nH]c2ccc([N+](=O)[O-])cc12,"inconclusive: 4.47 µM [inhibitor, full curve, poor fit]",–
CCOC(=O)/C=C1\CC(C(=O)OCC)Oc2ccccc21 (stereo not given),"inconclusive: 126 µM [inhibitor, single point]",–
CCc1ccccc1NC(=O)c1cnn2c1NC(C(=O)O)=CC2c1ccccc1OC (stereo not given),"inconclusive: 44.7 µM [inhibitor, partial curve, poor fit]",–
CCC(C)N(C(=O)Cn1c(=O)cnc2ccccc21)C1CCS(=O)(=O)C1 (stereo not given),"inconclusive: 2.82 µM [inhibitor, full curve, poor fit]",–
CCCCNCCOCCSc1ccc(Cl)cc1,"inconclusive: 0.282 µM [inhibitor, full curve, poor fit]",–
CCc1ccc2nc(NC(=O)C3CCN(c4ncnc5sc(C)c(C)c45)CC3)sc2c1,"inconclusive: 112 µM [inhibitor, single point]",–
CC(C)N(CCC(=O)c1ccc2ccccc2c1)Cc1ccccc1,"inconclusive: 14.1 µM [inhibitor, partial curve, poor fit] and active: 35.5 µM",–
CC(NC(=O)c1ccc(Br)cc1)C1CC2CCC1C2 (stereo not given),"inconclusive: 70.8 µM [inhibitor, single point]",–
COc1ccccc1N1CCN(C(=O)C(N)c2c(C)n[nH]c2C)CC1(C)C (stereo not given),–,inactive: 38.9%
Fc1ccc(Cn2nnnc2C(c2cccs2)N2CCN(C3CCCCC3)CC2)cc1 (stereo not given),–,inactive: 4.35%
COc1ccc([C@H]2CC(=O)C=C(c3ccccc3C(F)(F)F)C2)cc1,–,inactive: 2.39%
O=C(O)c1cccn1-c1ccccc1,–,inactive: 5.22%
COc1cc(C=NCc2ccccc2)ccc1O,"inconclusive: 44.7 µM [inhibitor, partial curve, poor fit]",–
c1nc(C23CC4CC(CC(C4)C2)C3)cs1,–,inactive: -6.63%
Cc1ccc(NS(=O)(=O)c2ccc(Cl)c(C(=O)O)c2)cc1Cl,–,inactive: -4.77%
O=C(CSCc1cccc(Br)c1)N/N=C/c1ccc2c(c1)OCO2,–,inactive: -9.34%
CC1(C)CC(OC(=O)c2ccco2)CC(C)(C)N1O,"inconclusive: 35.5 µM [inhibitor, partial curve, poor fit]",–
Cn1nc(C(=O)Nc2ccc(Cl)cc2)cc1C(=O)Nc1ccc(Cl)cc1,"inconclusive: 44.7 µM [inhibitor, single point]",–
CCCCS(=O)(=O)N1CC(n2cc(COc3ccccc3)nn2)C1,–,inactive: 4.62%
N#Cc1c(SCC(=O)O)nc2c(c1-c1cccs1)CCCC2,"inconclusive: 1.41 µM [inhibitor, full curve, poor fit]",–

# Whole records, quoted from the list:
# CCc1ccc2nc(NC(=O)C3CCN(c4ncnc5sc(C)c(C)c45)CC3)sc2c1 in the list: Potency: inconclusive: 112 µM [inhibitor, single point]
# CCCCNCCOCCSc1ccc(Cl)cc1 in the list: Potency: inconclusive: 0.282 µM [inhibitor, full curve, poor fit]
